These are yes or no findings as the source states them, for the method shown. In cells and extracts the contact can be indirect.
Target: RGA4 (rice) (UniProt F7J0M4)
Assay: co-IP; RGA5 HMA domains with AVR-PikD and RGA4 in N. benthamiana, RGA4 tested with or without AVR-PikD (Supplementary Fig. 2)

Sequences of proteins named here, by UniProt entry; tags and fusion partners are left off. A change or cut given only in a name is not applied to a line headed by its entry. A line that says so, or that is headed by a name, gives the form on record, which may keep a tag or linker.
UniProt F7J0M4: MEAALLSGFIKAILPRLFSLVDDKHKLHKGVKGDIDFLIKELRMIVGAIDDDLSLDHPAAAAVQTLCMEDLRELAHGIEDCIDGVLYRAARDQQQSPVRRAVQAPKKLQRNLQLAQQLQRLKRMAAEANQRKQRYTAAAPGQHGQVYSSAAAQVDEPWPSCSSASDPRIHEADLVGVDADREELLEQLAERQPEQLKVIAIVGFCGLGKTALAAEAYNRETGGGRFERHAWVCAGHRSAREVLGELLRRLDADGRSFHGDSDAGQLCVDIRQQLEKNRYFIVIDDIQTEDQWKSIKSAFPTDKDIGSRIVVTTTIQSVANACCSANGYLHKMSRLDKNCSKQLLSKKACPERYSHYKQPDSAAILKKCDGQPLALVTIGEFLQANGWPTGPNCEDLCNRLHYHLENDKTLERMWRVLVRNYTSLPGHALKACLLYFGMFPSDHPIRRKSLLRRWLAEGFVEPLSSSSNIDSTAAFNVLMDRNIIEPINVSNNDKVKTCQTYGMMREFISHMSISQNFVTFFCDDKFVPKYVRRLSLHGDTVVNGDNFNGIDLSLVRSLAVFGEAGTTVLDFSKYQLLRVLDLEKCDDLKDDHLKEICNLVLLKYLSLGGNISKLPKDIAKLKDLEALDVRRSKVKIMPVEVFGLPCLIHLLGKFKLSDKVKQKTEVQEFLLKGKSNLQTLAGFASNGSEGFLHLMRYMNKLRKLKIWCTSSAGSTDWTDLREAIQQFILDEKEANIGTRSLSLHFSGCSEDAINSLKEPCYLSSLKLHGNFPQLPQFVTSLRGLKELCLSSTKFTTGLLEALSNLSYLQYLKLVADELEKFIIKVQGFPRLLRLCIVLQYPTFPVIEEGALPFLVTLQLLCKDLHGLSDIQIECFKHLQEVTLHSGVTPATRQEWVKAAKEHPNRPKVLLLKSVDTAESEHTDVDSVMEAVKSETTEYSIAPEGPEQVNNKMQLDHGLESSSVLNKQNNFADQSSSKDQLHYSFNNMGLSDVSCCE
RGA5-HMA5 (expressed in N. benthamiana) (F7J0N2, form named): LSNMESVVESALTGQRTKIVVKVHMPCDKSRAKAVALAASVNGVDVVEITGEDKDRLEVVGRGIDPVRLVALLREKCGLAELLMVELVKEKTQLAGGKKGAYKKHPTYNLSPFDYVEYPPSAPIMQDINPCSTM
RGA5-HMA3 (expressed in N. benthamiana) (F7J0N2, form named): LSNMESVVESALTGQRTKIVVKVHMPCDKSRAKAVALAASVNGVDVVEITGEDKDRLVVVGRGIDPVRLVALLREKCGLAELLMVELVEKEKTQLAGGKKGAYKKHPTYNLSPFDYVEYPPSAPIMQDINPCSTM
RGA5-HMA4 (expressed in N. benthamiana) (F7J0N2, form named): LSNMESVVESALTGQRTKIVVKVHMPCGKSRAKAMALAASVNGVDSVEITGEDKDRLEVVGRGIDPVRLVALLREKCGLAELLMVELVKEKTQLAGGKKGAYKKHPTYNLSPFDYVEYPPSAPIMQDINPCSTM

Substance	binding
RGA5-HMA5 (expressed in N. benthamiana) (from UniProt F7J0N2 982-1116) (domain or fragment)	no binding
RGA5-HMA3 (expressed in N. benthamiana) (from UniProt F7J0N2 982-1116) (domain or fragment)	no binding
RGA5-HMA4 (expressed in N. benthamiana) (from UniProt F7J0N2 982-1116) (domain or fragment)	no binding

— publication PMC10847126
